Data from PubChem BioAssay AID248 (DTP/NCI, 2004).
The list does not hold the whole screen: it is rich in T/C values a quarter to a half above the control, in often repeated tests (any T/C) and in doses without a T/C. Other doses and runs of a compound stand elsewhere. T/C is the treated group as % of the vehicle group. Some doses have a count of surviving animals in place of a T/C: the source holds a T/C of zero for them, seemingly a mark for toxic or unscored doses. Some survivor counts are full or nearly so, which does not show that the dose was tolerated: survival well below the control is almost never listed, so the zero probably covers shortened survival too. Survivors were counted at the toxicity check, usually on the fifth day, unless a day is given; later deaths do not show. Schedule codes are those of the source, read here as Q, the interval in days (D) or hours (H), X, the number of doses. Some schedule codes hold Z or #, which are not explained here. Some entries were tested several times; the values are given in rising order. For survival time, the PubChem record calls one and a half times the control and up active, and a quarter to a half above the control has no call in these data; cut-offs in other NCI protocols can differ.

Tested on: L1210 leukemia ip in BDF1 mice, survival T/C
Test: NCI In Vivo Anticancer Drug Screen. Data for tumor model L1210 Leukemia (intraperitoneal) in B6D2F1 (BDF1) mice
Conditions: higher T/C = longer survival
[1] = T/C endpoint: mean survival time, dose: 100.0 mg/kg/injection, schedule: Q01DX009 (ip), vehicle: Klucel (hydroxypropylcellulose) (HPC)

O=C(Nc1ccc(CN2CCOCC2)cc1)c1ccc(C(=O)Nc2ccc(CN3CCOCC3)cc2)cc1
survivor count (T/C endpoint: mean survival time, dose: 150.0 mg/kg/injection, schedule: Q01DX Z (ip), vehicle: water): 5 of 6
survivor count (T/C endpoint: mean survival time, dose: 300.0 mg/kg/injection, schedule: Q01DX Z (ip), vehicle: water): 2 of 6

N#CS/C=C/C(N)=O
survivor count (T/C endpoint: mean survival time, dose: 12.5 mg/kg/injection, schedule: Q01DX001 (ip), vehicle: saline): 2 of 6
survivor count (T/C endpoint: mean survival time, dose: 25.0 mg/kg/injection, schedule: Q01DX001 (ip), vehicle: saline): 0 of 6
survivor count (T/C endpoint: mean survival time, dose: 50.0 mg/kg/injection, schedule: Q01DX001 (ip), vehicle: saline): 1 of 6
survivor count (T/C endpoint: mean survival time, dose: 100.0 mg/kg/injection, schedule: Q01DX001 (ip), vehicle: saline): 0 of 6
survivor count (T/C endpoint: mean survival time, dose: 200.0 mg/kg/injection, schedule: Q01DX001 (ip), vehicle: saline): 0 of 6
survivor count (T/C endpoint: mean survival time, dose: 400.0 mg/kg/injection, schedule: Q01DX001 (ip), vehicle: saline): 0 of 6

C[n+]1ccccc1/C=C/c1ccnc2c(O)cccc12
survivor count (T/C endpoint: mean survival time, dose: 300.0 mg/kg/injection, schedule: Q01DX001 (ip), vehicle: carboxymethylcellulose (CMC)): 2 of 6

O=CCC(O)C(O)C(O)CO (stereo not given)
T/C (T/C endpoint: median survival time, dose: 125.0 mg/kg/injection, schedule: Q01DX009 (ip), vehicle: saline): 131 % of control

CCCCCCCCC/C(C)=C1/SC(=S)NC1=O
survivor count (T/C endpoint: mean survival time, dose: 200.0 mg/kg/injection, schedule: Q01DX009 (ip), vehicle: saline): 6 of 6
survivor count (T/C endpoint: mean survival time, dose: 400.0 mg/kg/injection, schedule: Q01DX009 (ip), vehicle: saline): 6 of 6

O=c1ccc([N+](=O)[O-])c[nH]1.[Ag]
survivor count (T/C endpoint: mean survival time, dose: 50.0 mg/kg/injection, schedule: Q04DX003 (ip), vehicle: Klucel (hydroxypropylcellulose) (HPC)): 3 of 6
survivor count (T/C endpoint: mean survival time, dose: 100.0 mg/kg/injection, schedule: Q04DX003 (ip), vehicle: Klucel (hydroxypropylcellulose) (HPC)): 1 of 6
survivor count (T/C endpoint: mean survival time, dose: 200.0 mg/kg/injection, schedule: Q04DX003 (ip), vehicle: Klucel (hydroxypropylcellulose) (HPC)): 0 of 6
survivor count (T/C endpoint: mean survival time, dose: 400.0 mg/kg/injection, schedule: Q04DX003 (ip), vehicle: Klucel (hydroxypropylcellulose) (HPC)): 0 of 6

O=C(O)C(Nc1cccc2ccccc12)c1ccccc1 (stereo not given)
survivor count (T/C endpoint: mean survival time, dose: 400.0 mg/kg/injection, schedule: Q04DX002 (ip), vehicle: Klucel (hydroxypropylcellulose) (HPC)): 1 of 3

NC(=O)c1cc[n+](-c2ccc([N+](=O)[O-])cc2[N+](=O)[O-])cc1
survivor count (T/C endpoint: mean survival time, dose: 400.0 mg/kg/injection, schedule: Q04DX003 (ip), vehicle: saline): 3 of 6

COC(=O)Nc1cccc(-c2nc3ccc(NC(=O)OC)cc3c(=O)n2-c2ccccc2)c1
T/C (T/C endpoint: mean survival time, dose: 50.0 mg/kg/injection, schedule: Q01DX009 (ip), vehicle: Klucel (hydroxypropylcellulose) (HPC)): 137 % of control
T/C [1]: 136 % of control
survivor count [1]: 6 of 6
survivor count (T/C endpoint: mean survival time, dose: 100.0 mg/kg/injection, schedule: Q01DX009 (ip), vehicle: other): 0 of 7
survivor count (T/C endpoint: mean survival time, dose: 200.0 mg/kg/injection, schedule: Q01DX009 (ip), vehicle: Klucel (hydroxypropylcellulose) (HPC)): 0 of 6 and 5 of 6
T/C (T/C endpoint: median survival time, dose: 50.0 mg/kg/injection, schedule: Q04DX003 (ip), vehicle: saline): 140 % of control
T/C (T/C endpoint: median survival time, dose: 100.0 mg/kg/injection, schedule: Q04DX003 (ip), vehicle: Klucel (hydroxypropylcellulose) (HPC)): 140 % of control
T/C (T/C endpoint: median survival time, dose: 100.0 mg/kg/injection, schedule: Q04DX003 (ip), vehicle: saline with Tween-80): 142 % of control
survivor count (T/C endpoint: median survival time, dose: 150.0 mg/kg/injection, schedule: Q04DX003 (ip), vehicle: saline): 5 of 7
survivor count (T/C endpoint: median survival time, dose: 200.0 mg/kg/injection, schedule: Q04DX003 (ip), vehicle: saline): 4 of 7
survivor count (T/C endpoint: median survival time, dose: 400.0 mg/kg/injection, schedule: Q04DX003 (ip), vehicle: other): 2 of 6
T/C (T/C endpoint: median survival time, dose: 500.0 mg/kg/injection, schedule: Q04DX003 (oral), vehicle: saline): 129 % of control
